Laboratory results reported in article PMC11971047.
These are yes or no findings as the source states them, for the method shown. In cells and extracts the contact can be indirect. Binding can be weak; no strength is given. Where a sequence is shown, tags or fusion partners need not be part of it.

Target: human truncated adenylyl cyclase 3, FLAG-tagged (hAC3-AT-FLAG) (human)
Assay: co-IP; HEK293T cells transiently transfected with hAC3-HA and hAC3-AT-FLAG (or mCherry as control); lysis in 20 mM TRIS/HCl pH 8, 137 mM NaCl, 2 mM EDTA, 1% NP-40; anti-FLAG-M2 magnetic beads overnight at 4 °C; glycine pH 3.0 elution; western blot with HA antibody

B1: human adenylyl cyclase 3, HA-tagged (hAC3-HA) (enzyme, UniProt O60266 1-1144)
chain: MPRNQGFSEPEYSAEYSAEYSVSLPSDPDRGVGRTHEISVRNSGSCLCLPRFMRLTFVPESLENLYQTYFKRQRHETLLVLVVFAALFDCYVVVMCAVVFSSDKLASLAVAGIGLVLDIILFVLCKKGLLPDRVTRRVLPYVLWLLITAQIFSYLGLNFARAHAASDTVGWQVFFVFSFFITLPLSLSPIVIISVVSCVVHTLVLGVTVAQQQQEELKGMQLLREILANVFLYLCAIAVGIMSYYMADRKHRKAFLEARQSLEVKMNLEEQSQQQENLMLSILPKHVADEMLKDMKKDESQKDQQQFNTMYMYRHENVSILFADIVGFTQLSSACSAQELVKLLNELFARFDKLAAKYHQLRIKILGDCYYCICGLPDYREDHAVCSILMGLAMVEAISYVREKTKTGVDMRVGVHTGTVLGGVLGQKRWQYDVWSTDVTVANKMEAGGIPGRVHISQSTMDCLKGEFDVEPGDGGSRCDYLEEKGIETYLIIASKPEVKKTATQNGLNGSALPNGAPASSKSSSPALIETKEPNGSAHSSGSTSEKPEEQDAQADNPSFPNPRRRLRLQDLADRVVDASEDEHELNQLLNEALLERESAQVVKKRNTFLLSMRFMDPEMETRYSVEKEKQSGAAFSCSCVVLLCTALVEILIDPWLMTNYVTFMVGEILLLILTICSLAAIFPRAFPKKLVAFSTWIDRTRWARNTWAMLAIFILVMANVVDMLSCLQYYTGPSNATAGMETEGSCLENPKYYNYVAVLSLIATIMLVQVSHMVKLTLMLLVAGAVATINLYAWRPVFDEYDHKRFREHDLPMVALEQMQGFNPGLNGTDRLPLVPSKYSMTVMVFLMMLSFYYFSRHVEKLARTLFLWKIEVHDQKERVYEMRRWNEALVTNMLPEHVARHFLGSKKRDEELYSQTYDEIGVMFASLPNFADFYTEESINNGGIECLRFLNEIISDFDSLLDNPKFRVITKIKTIGSTYMAASGVTPDVNTNGFASSNKEDKSERERWQHLADLADFALAMKDTLTNINNQSFNNFMLRIGMNKGGVLAGVIGARKPHYDIWGNTVNVASRMESTGVMGNIQVVEETQVILREYGFRFVRRGPIFVKGKGELLTFFLKGRDKLATFPNGPSVTLPHQVVDNS
With B1 the binding was “binds”.
